In article PMC5431167 one finds binding data, which are given here for one substance.

Sequences of proteins named here, by UniProt entry; tags and fusion partners are left off.
UniProt Q9I4P9: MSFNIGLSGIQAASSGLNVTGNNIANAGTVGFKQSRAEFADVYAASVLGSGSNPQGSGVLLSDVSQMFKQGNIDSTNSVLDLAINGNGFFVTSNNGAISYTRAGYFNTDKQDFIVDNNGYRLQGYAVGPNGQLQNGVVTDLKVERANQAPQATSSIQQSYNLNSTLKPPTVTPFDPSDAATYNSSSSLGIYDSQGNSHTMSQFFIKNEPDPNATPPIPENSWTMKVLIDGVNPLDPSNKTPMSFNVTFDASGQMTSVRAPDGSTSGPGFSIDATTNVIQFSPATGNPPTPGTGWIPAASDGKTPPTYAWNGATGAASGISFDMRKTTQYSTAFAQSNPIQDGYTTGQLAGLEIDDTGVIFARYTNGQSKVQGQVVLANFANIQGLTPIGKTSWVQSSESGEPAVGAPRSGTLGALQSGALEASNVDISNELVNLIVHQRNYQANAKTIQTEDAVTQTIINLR
UniProt Q03135: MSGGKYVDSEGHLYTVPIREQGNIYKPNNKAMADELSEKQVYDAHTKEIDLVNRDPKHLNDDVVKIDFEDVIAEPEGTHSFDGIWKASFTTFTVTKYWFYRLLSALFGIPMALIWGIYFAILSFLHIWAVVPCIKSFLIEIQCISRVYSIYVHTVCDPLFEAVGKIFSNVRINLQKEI

Results are given in words; binding and its absence hold for the method and conditions named. In cells and extracts the contact can be indirect. Some results given as binding are weak or reduced against the parent protein; the word gives no strength.

The test concerns the target recombinant flagellar hook protein FlgE of Pseudomonas aeruginosa PAO1 (Pseudomonas aeruginosa PAO1) (UniProt Q9I4P9). Briefly: pull-down; FlgE- or FlgEM-saturated His-agarose beads incubated with the same amount of HCEC membrane proteins at 4 °C for 8 h; PBS washes; beads boiled in SDS loading buffer; Western blot with anti-CAV1 and anti-His; unconjugated resin as control; only the target purified. Background: A western blot detects proteins with antibodies after separation by electrophoresis.

As to Caveolin-1 (from UniProt Q03135 1-178), the binding result was “binds”.
